# For at least one compound, name, drawing or mass did not settle the structure.
# Columns and labels:
# Assay type in all cases: cell-based, human
# MEK 1/2 and ERK 1/2 = assay: Western analysis of Raf-1 pathway activation, BON-raf cells treated with estradiol; conditions: BON-raf cells (estrogen inducible raf-1 fusion)
# Chromogranin A = assay: Western analysis of chromogranin A, BON-raf cells treated with estradiol
# Description: Usually, carcinoid tumors secrete high levels of both chromogranin A and serotonin due to disregulated hormone production. Similarly, BON cells treated with control or estradiol, and BON-raf cells treated with control had high levels of the NE marker chromogranin A as determined by Western analysis. […] In addition, BON and BON-raf cells were tested for serotonin secretion by ELISA after treatment with control or estradiol.
# Cell culture. Human pulmonary carcinoid cells (NCI-H727) were obtained from American Type Culture Collection (Manassas, Va.) and human pancreatic carcinoid tumor cells, BON a generous gift of Drs. Evers and Townsend (Parekh et al., 1994), were maintained in RPMI 1640 and D-MEM-F12 media (Life Technologies, Rockville, Md.) respectively supplemented with 10% Fetal Bovine Serum (Sigma, St. Louis, Mo.), 100 IU/ml penicillin and 100 μg/ml streptomycin (Life Technologies) in a humidified atmosphere of 5% CO2 in air at 37° C. The maintenance of BON-raf cells and the activation of Raf-1 were followed as described previously (Sippel et al., 2003; Sippel and Chen, 2002; McMahon, 2001).
# Western blot analysis. Cellular extracts were prepared and quantified by BCA protein assay kit (Pierce, Rockford, Ill.) as previously described (Sippel et al., 2003). […]
# hASH1 = assay: Western analysis of hASH1, BON-raf cells treated with estradiol
# BON-raf cells = assay: serotonin secretion by ELISA, BON-raf cells
# BON or BON-raf cells = assay: cellular proliferation by cell counts and MTT, BON and BON-raf cells; conditions: 10-day period
# [1] = days 2, 4 and 6, listed as estradiol
smiles,measurement,setting,value
C[C@]12CC[C@@H]3c4ccc(O)cc4CC[C@H]3[C@@H]1CC[C@@H]2O [Estradiol],phosphorylation of ERK 1/2,MEK 1/2 and ERK 1/2,phosphorylation of MEK 1/2 and ERK 1/2 proteins
same,phosphorylation of MEK 1/2,MEK 1/2 and ERK 1/2,phosphorylation of MEK 1/2 and ERK 1/2 proteins
same,phosphorylation of ERK 1/2,MEK 1/2 and ERK 1/2; listed as estradiol,activation of MEK 1/2 and ERK 1/2
same,phosphorylation of MEK 1/2,MEK 1/2 and ERK 1/2; listed as estradiol,activation of MEK 1/2 and ERK 1/2
same,CgA level,"Chromogranin A; days 2, 4 and 6",reduces the level of Chromogranin A (CgA) and hASH1 proteins significantly
same,CgA level,Chromogranin A; [1],reduction in CgA
same,hASH1 level,"hASH1; days 2, 4 and 6",reduces the level of Chromogranin A (CgA) and hASH1 proteins significantly
same,hASH1 level,hASH1; [1],significant reductions in hASH1
same,serotonin secretion,BON-raf cells,significant reduction in serotonin secretion
same,proliferation rates,BON or BON-raf cells,no differences in proliferation rates

# From patent publication US20060025485A1, “Hydroxybenazamide compounds for treatment of cancer” (priority 2004, published 2006)
